In PMC5240590:
These are yes or no findings as the source states them, for the method shown.

Target: T1, recombinant human α-fetoprotein (R-AFP) (human), P02771
T1 chain: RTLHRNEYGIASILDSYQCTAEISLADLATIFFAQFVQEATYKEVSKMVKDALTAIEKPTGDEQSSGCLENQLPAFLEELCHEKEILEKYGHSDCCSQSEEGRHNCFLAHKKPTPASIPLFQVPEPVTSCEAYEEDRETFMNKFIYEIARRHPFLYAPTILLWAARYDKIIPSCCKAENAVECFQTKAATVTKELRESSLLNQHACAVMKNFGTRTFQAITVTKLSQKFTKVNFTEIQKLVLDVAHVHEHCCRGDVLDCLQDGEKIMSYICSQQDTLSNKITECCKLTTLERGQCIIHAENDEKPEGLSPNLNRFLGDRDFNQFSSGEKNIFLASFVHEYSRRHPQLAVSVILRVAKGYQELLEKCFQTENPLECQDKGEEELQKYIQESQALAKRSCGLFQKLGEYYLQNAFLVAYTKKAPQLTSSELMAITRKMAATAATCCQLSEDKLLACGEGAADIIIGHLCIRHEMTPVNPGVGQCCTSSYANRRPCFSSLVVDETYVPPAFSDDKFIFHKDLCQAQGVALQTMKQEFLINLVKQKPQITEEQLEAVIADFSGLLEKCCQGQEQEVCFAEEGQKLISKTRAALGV
Assay: SEC; Superdex 200 gel filtration of Ni-purified R-AFP, HBS buffer (10 mM Hepes pH 7.2, 150 mM NaCl), 1 ml/min, detection at 280 nm; elution at 15.0 ml, position of 65-70 kDa; both purified
Details: remark: other sources report otherwise

B1: recombinant human α-fetoprotein (R-AFP), P02771 19-609 (protein)
chain: T1 chain
binding: no binding
